Data taken from PubChem BioAssay AID1259354 (Paczesny and Yang Labs, IUPUI and University of Michigan, 2018).
In all, about 78,000 compounds went through this assay and about 1,800 (2.3%) were called active. The shares of active, inactive and inconclusive entries below differ from those in the screen. Rule as the data show it: active = inhibition above about 30%; inconclusive = mostly about 10% to 28%; inactive = weaker than that.

Protein sequences, listed by entry. Tags and fused reporters are not part of them. Lines headed by an entry give the natural chain unless they say otherwise; changes in a name come on top.
UniProt Q01638: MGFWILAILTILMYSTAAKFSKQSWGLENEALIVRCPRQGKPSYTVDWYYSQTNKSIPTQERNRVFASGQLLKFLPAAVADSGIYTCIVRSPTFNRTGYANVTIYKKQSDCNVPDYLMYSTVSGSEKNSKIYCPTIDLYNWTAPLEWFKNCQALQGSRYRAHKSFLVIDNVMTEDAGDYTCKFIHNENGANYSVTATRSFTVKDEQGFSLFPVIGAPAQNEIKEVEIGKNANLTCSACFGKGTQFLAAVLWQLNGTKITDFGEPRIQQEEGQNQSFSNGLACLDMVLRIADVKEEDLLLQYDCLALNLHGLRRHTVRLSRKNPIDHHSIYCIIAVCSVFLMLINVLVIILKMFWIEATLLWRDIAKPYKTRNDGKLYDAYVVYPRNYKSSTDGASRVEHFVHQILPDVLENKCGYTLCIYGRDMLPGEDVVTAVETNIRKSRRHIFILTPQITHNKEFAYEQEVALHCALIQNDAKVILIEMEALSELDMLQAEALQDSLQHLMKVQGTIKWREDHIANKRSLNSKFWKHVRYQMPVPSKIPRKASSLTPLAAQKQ

The molecules below were run against Interleukin-1 receptor-like 1 (Homo sapiens) (UniProt Q01638) (assay: blocks human ST2 binding to IL-33, primary screen, biochemical, AlphaLISA (AID 1259354)). Details: AlphaLISA ST2-Fc/biotin-IL-33 interaction, 1 h; at 17 µM, hits give high values.
`COC(=O)CCCNc1nncc(-c2c(OC)cccc2OC)n1` was tested, and the inhibition was inconclusive: 13%.
In the case of `CCOc1cc(C)nn1-c1ccccc1`, the inhibition is reported as “inactive”.
`CN1CCc2c(sc(NC(=O)c3ccco3)c2-c2nc3ccccc3s2)C1` was tested, and the inhibition was inconclusive: 23%.
With `CC(C)c1ccc(Nc2nnc(Cc3ccccc3)c(=O)[nH]2)cc1` the inhibition was inconclusive: 10%.
In the case of `CC1CCCN(Cc2c(O)ccc3cc(-c4nc5ccccc5[nH]4)c(=O)oc23)C1` (stereo unspecified), the inhibition is reported as inconclusive: 10%.
With `Cc1ccc(C)c(N2CCN(CC3CC4C=CC3C4)CC2)c1` (stereo unspecified) the inhibition was inconclusive: 10%.
`CCCCCC(=O)N(CN1C(=O)c2ccccc2C1=O)c1cccc(C(=O)O)c1` was tested, and the inhibition was inconclusive: 11%.
`O[C@@H]1C[C@@H](c2nc(-c3ccncc3)no2)N(Cc2ccccc2)C1` was tested, and the inhibition was “inactive”.
In the case of `COc1cc(C2c3cc4c(c(OC5OC(CO)C(O)C(O)C5O)c3CC3COC(=O)C32)OCO4)cc(OC)c1OC` (stereo unspecified), the inhibition is reported as “inactive”.
In the case of `COCc1cc(C)nc2sc(-c3nc4ccccc4[nH]3)c(NC(=O)c3ccccc3)c12`, the inhibition is reported as inconclusive: 19%.
`Cc1cc([N+](=O)[O-])c(NCC(C)O)cc1N` (stereo unspecified) was tested, and the inhibition was “inactive”.
With `Cc1ccccc1S(=O)(=O)CC(SC#N)c1ccccc1` (stereo unspecified) the inhibition was inconclusive: 14%.
For `NC(=O)c1cccc(CC2CCN(C(=O)c3cnc4ccccc4c3)C2)c1` (stereo unspecified), the inhibition was inconclusive: 11%.
For `O=C1c2ccccc2C(Nc2ccc(S(=O)(=O)N3CCOCC3)cc2)N1Cc1ccccc1` (stereo unspecified), the inhibition was inconclusive: 21%.
For `Cc1cc(C)c(-c2cc(NCCO)nc(N)n2)c(C)c1`, the inhibition was inconclusive: 12%.
For `COc1ccc(CNC(=O)CC[C@H]2CNC(=O)[C@@H]3[C@@H](CCN3C3CCOCC3)N2C)cc1`, the inhibition was inconclusive: 17%.
In the case of `CN1CCC2(CC1)CCN(Cc1ccc(C(=O)O)cc1)C2`, the inhibition is reported as inconclusive: 10%.
`COc1cc(/C=C2/SC(=Nc3ccccc3)NC2=O)ccc1OCC#N` was tested, and the inhibition was active: 32%.
`CCN1CCN(C(=O)CN2C(=O)/C(=C\c3ccc(C(F)(F)F)cc3)Sc3ccccc32)CC1` was tested, and the inhibition was inconclusive: 24%.
`COc1ccc2oc(=O)c(C(=O)Nc3ccc(C)cc3C)cc2c1` was tested, and the inhibition was inconclusive: 13%.
With `COc1ccc2nc(N3CCC(C(=O)NCCCN4C(C)CCCC4C)CC3)sc2c1` (stereo unspecified) the inhibition was “inactive”.
For `C=CCOc1ccc(C=Nc2ccc(OC)cc2)c(OCC=C)c1`, the inhibition was inconclusive: 14%.
With `COc1ccc(Cl)cc1C(=O)Nc1cccc(N2CCCS2(=O)=O)c1` the inhibition was inconclusive: 23%.
In the case of `COc1cccc(C2Oc3nc(SC)nnc3-c3ccccc3N2C(C)=O)c1OC` (stereo unspecified), the inhibition is reported as inconclusive: 13%.
`Cc1cc([N+](=O)[O-])ccc1N=Cc1ccc(Br)c([N+](=O)[O-])c1` was tested, and the inhibition was inconclusive: 25%.
With `Cc1c(C(=O)N2CCN(c3ccccn3)CC2)sc2ncnc(N3CCOCC3)c12` the inhibition was inconclusive: 13%.
For `O=[N+]([O-])c1ccc(-n2nncc2-c2ccccc2)cc1`, the inhibition was inconclusive: 15%.
With `Cc1ccc(C)c(S(=O)(=O)Nc2ccccc2Cl)c1` the inhibition was “inactive”.
With `O=C(C1CCN(S(=O)(=O)c2cccnc2)CC1)N1CC=C(c2ccccc2)CC1` the inhibition was “inactive”.
`Cc1nc(SCC(=O)Nc2ccccc2)c2c(=O)n(C)c(=O)n(C)c2n1` was tested, and the inhibition was “inactive”.
With `O=C(CN1CCCC1=O)N1CCCC2(C=Cc3ccccc3O2)CC1` (stereo unspecified) the inhibition was inconclusive: 25%.
For `CN(C)c1ccc(/C=C/c2ccnc3ccccc23)cc1`, the inhibition was active: 43%.
In the case of `O=C1CC(N2CCN(c3ccccn3)CC2)C(=O)N1c1ccc(Cl)cc1` (stereo unspecified), the inhibition is reported as “inactive”.
With `CCCc1cc(Cn2ccnc2-c2ccc(F)c(F)c2F)on1` the inhibition was inconclusive: 18%.
With `Cc1cnccc1N1CCCN(c2cc(N(C)C)ncn2)CC1` the inhibition was “inactive”.
In the case of `Cc1cc(C)c(OCC(=O)NCCc2ccccc2)c(C)c1`, the inhibition is reported as “inactive”.
In the case of `Cc1cccc(-c2noc(CCC(=O)N3CCCC(N(C)C)CC3)n2)c1` (stereo unspecified), the inhibition is reported as “inactive”.
`CC(C)Cn1cc(C(=O)N2CCC(Cc3ccccc3)CC2)c2c3ccccc3n(C)c2c1=O` was tested, and the inhibition was inconclusive: 16%.
With `COc1ccc(Cc2noc(-c3cccc([N+](=O)[O-])c3)n2)cc1OC` the inhibition was inconclusive: 14%.
With `O=C(Nc1ccc([N+](=O)[O-])c(NC(=O)c2cccs2)c1)c1cccs1` the inhibition was inconclusive: 17%.
For `Cc1cccn2c(=O)c(C=NCc3ccccc3)c(NCc3ccco3)nc12`, the inhibition was inconclusive: 11%.
With `CCOc1ccc(N2CC(NC(=O)C(C)C)CC2=O)cc1` (stereo unspecified) the inhibition was inconclusive: 25%.
In the case of `Fc1cccc(-c2cnnc(N3CCN(C/C=C/c4ccccc4)CC3)n2)c1`, the inhibition is reported as “inactive”.
With `Cc1ccoc1C(=O)NCc1cnn2ccccc12` the inhibition was inconclusive: 16%.
In the case of `Cc1cccc(C2=N/C(=C\c3cccc(C(F)(F)F)c3)C(=O)O2)c1`, the inhibition is reported as active: 32%.
For `CCC(=O)N1c2ccccc2NC2=C(C(=O)CC(C)(C)C2)C1CC1CC=C(C)C1(C)C` (stereo unspecified), the inhibition was inconclusive: 10%.
With `C=C(C)CNC(=O)C1CCCN(C2CCN(Cc3ccncc3)CC2)C1` (stereo unspecified) the inhibition was inconclusive: 15%.
In the case of `CCC(C)N(CC#Cc1ccccc1)C(=O)CC1=CCNCC1` (stereo unspecified), the inhibition is reported as “inactive”.
`CC(=O)c1cccc(N2C(=O)[C@@H]3[C@@H](CCN3C(=O)C(C)(C)C)N(Cc3cccc(F)c3)C2=O)c1` was tested, and the inhibition was inconclusive: 19%.
For `O=C1C[C@@H]2CCN(Cc3ccccc3)C[C@@H]2CCN1C1CCCCC1`, the inhibition was active: 76%.
For `Cc1ccc(-n2cccc2)cc1[N+](=O)[O-]`, the inhibition was active: 31%.
In the case of `CN(CC1(CO)CCOCC1)C(=O)c1ccc(NC(=O)C2CCC2)cc1`, the inhibition is reported as “inactive”.
With `Cc1ccc(C(Nc2ccccn2)c2ccc3cccnc3c2O)cc1` (stereo unspecified) the inhibition was inconclusive: 27%.
In the case of `O=C(c1ccc2nc3ccc(Cl)cc3c(=O)n2c1)N1CCN(c2ccccc2F)CC1`, the inhibition is reported as “inactive”.
In the case of `Cc1nc(CN(C)C(=O)c2cc(CN3CCOCC3)on2)cs1`, the inhibition is reported as inconclusive: 27%.
`COc1ccc(-c2cn3c4c(=O)n(C)c(=O)n(C)c4nc3n2-c2ccc(C)cc2)cc1` was tested, and the inhibition was inconclusive: 26%.
With `O=C(CCC1CCN(Cc2sc3ccccc3c2Cl)CC1)N1CCOCC1` the inhibition was “inactive”.
In the case of `O=C1NCCN(Cc2cccs2)C1CC(=O)N1CCC(O)(c2ccccc2)CC1` (stereo unspecified), the inhibition is reported as inconclusive: 16%.
For `Cn1c(=NC(=O)C2CCCCC2)sc2ccccc21`, the inhibition was “inactive”.
With `Cc1ccc(-c2nc3ccc(Cl)cn3c2Nc2ccc3c(c2)OCCO3)o1` the inhibition was inconclusive: 18%.
In the case of `CC(=O)N(c1ccc(C)c(C)c1)C1C=CS(=O)(=O)C1` (stereo unspecified), the inhibition is reported as “inactive”.
`CCOC(=O)C1(CC2CC2)CCN(Cc2ccc(SC)cc2)CC1` was tested, and the inhibition was “inactive”.
With `N[C@@H]1CC[C@@H](NS(=O)(=O)c2cc(Cl)c(Cl)s2)C1` the inhibition was inconclusive: 17%.
With `Cc1cccc(NC(=O)CSc2nc3ccccc3c(=O)n2C)c1C` the inhibition was inconclusive: 14%.
`COc1cc(S(=O)(=O)Nc2cnc3ccccc3c2)ccc1Cl` was tested, and the inhibition was “inactive”.
In the case of `CN(C)CC1(O)CCCN(C(=O)CCc2ccc(N(C)C)cc2)CC1` (stereo unspecified), the inhibition is reported as inconclusive: 11%.
`Oc1cc2c(cc1O)CN(C(=S)NCCc1ccc(Cl)cc1)CCC2` was tested, and the inhibition was inconclusive: 10%.
With `Fc1ccc(-c2nc3cnccn3c2NC2CCCCC2)cc1` the inhibition was “inactive”.
In the case of `CCC(=O)N1CCN=C1SCc1ccccc1C`, the inhibition is reported as inconclusive: 10%.
For `N#Cc1nc(COc2ccccc2Cl)oc1N1CCCC1`, the inhibition was active: 73%.
`O=C(CNS(=O)(=O)c1cccs1)NCCc1ccc(Cl)cc1` was tested, and the inhibition was inconclusive: 11%.
`CC1(C)COC(c2ccc(Cl)cc2)=N1` was tested, and the inhibition was “inactive”.
With `COc1ccc(CCNC(=O)CN2CCN(C(N)=O)CC2)cc1` the inhibition was “inactive”.
For `Cc1cccn2c(=O)c3cc(C(=O)Nc4ccccc4F)n(C)c3nc12`, the inhibition was “inactive”.
For `CN(Cc1ccccc1)[C@H]1[C@H](O)[C@H](CO)O[C@@H]1CNC1CCCCC1`, the inhibition was “inactive”.
`COCC(=O)Nc1ccc(-c2c(C)cccc2C)cc1` was tested, and the inhibition was inconclusive: 20%.
`CCOc1ccccc1NC(=O)CN(c1cccc(Cl)c1Cl)S(C)(=O)=O` was tested, and the inhibition was inconclusive: 12%.
`CCn1cc(-c2c(-c3ccccc3)ncn2CCN2CCCCC2CO)cn1` (stereo unspecified) was tested, and the inhibition was inconclusive: 12%.
In the case of `COc1cc(NC(=O)c2ccc(-c3ccccc3)cc2)c(OC)cc1NC(=O)c1ccccc1`, the inhibition is reported as inconclusive: 15%.
With `O=[N+]([O-])c1ccccc1S(=O)(=O)Nc1cccc(C(F)(F)F)c1` the inhibition was “inactive”.
For `CCN(CC)C(=O)C1CCCN(Cc2ccc([N+](=O)[O-])cc2)C1` (stereo unspecified), the inhibition was inconclusive: 11%.
With `Cn1ccnc1C(=O)C1CCCN(C(=O)c2cc(COc3ccc(F)c(F)c3)on2)C1` (stereo unspecified) the inhibition was inconclusive: 14%.
`O=C(Nc1ccccc1Br)c1ccccc1Cl` was tested, and the inhibition was inconclusive: 10%.
For `CC1CCN(c2cc(N3CCOCC3)c([N+](=O)[O-])cc2F)CC1`, the inhibition was inconclusive: 10%.
With `O=c1cc2oc3cc(O)c(O)cc3c(-c3ccccc3)c-2cc1O` the inhibition was active: 36%.
With `COc1cccc(C2CCN2C(=O)CC(=O)Nc2ccc(C)cc2)c1` (stereo unspecified) the inhibition was active: 31%.
`O=C(CN1CCCN(Cc2cccc(Cl)c2)S1(=O)=O)Nc1ccc2c(c1)OCO2` was tested, and the inhibition was inconclusive: 16%.
With `CCOC(=O)c1cnn(-c2ccccc2)c1NC(=O)c1ccco1` the inhibition was inconclusive: 10%.
With `COc1ccc(OC)c(NC(=O)C2CCN(c3ccc(-c4cccs4)nn3)CC2)c1` the inhibition was “inactive”.
With `NS(=O)(=O)c1ccc(-c2ccc(CO)o2)cc1` the inhibition was inconclusive: 12%.
In the case of `CNCCOc1ccc(C)cc1-c1ccccc1Cl`, the inhibition is reported as inconclusive: 19%.
`CSCC(=O)N1CCCC(C(=O)Nc2ccc(-c3cccc(F)c3)cc2)C1` (stereo unspecified) was tested, and the inhibition was inconclusive: 11%.
In the case of `COc1ccc(S(=O)(=O)N2CCN(S(=O)(=O)c3ccc([N+](=O)[O-])cc3)CC2)cc1`, the inhibition is reported as inconclusive: 10%.
`O=C(O)C[C@@H]1CCN(C(=O)NC2CCCCC2)C[C@@H]1CCN1CCCCC1` was tested, and the inhibition was inconclusive: 12%.
In the case of `Cc1cccn2c(=O)c3cc(C(=O)NC4CCCCC4C)n(C)c3nc12` (stereo unspecified), the inhibition is reported as inconclusive: 13%.
For `N=C1S/C(=C\c2ccc(F)cc2F)C(=O)N1c1ccc2c(c1)OCO2`, the inhibition was inconclusive: 24%.
